Results from patent publication US7091033B2, “Array of toxicologically relevant canine genes and uses thereof” (Phase-1 Molecular Toxicology, Inc., priority 2000, dated 2006).
For at least one compound, name, drawing or mass did not settle the structure.

Test system: canine genes differentially expressed in organs (liver, spleen, kidney, testes, heart, thymus)
Experiment: Transcriptome profiling / differential display of tissues from canines exposed to an agent versus vehicle (reverse transcription, PCR, reamplification of bands, sequencing)
Type: in vivo

Row | SMILES | Expression Pattern (Band # CTP4B, No significant match) | Expression Pattern (Band # CTP20B, Bos taurus ribosomal prol AF063243) | Expression Pattern (Band # CTP21A, Rattus norvegicus ribosor NM_022506) | Expression Pattern (Band # CTP22C, Canis familiaris mRNA for AJ388512) | Expression Pattern (Band # CTP36A, No significant match) | Expression Pattern (Band # CTP1D, No significant match) | Expression Pattern (Band # CTP1G, No significant match) | Expression Pattern (Band # CTP3B, Homo Sapien N-myc dow BC003175, larger band of doublet) | Expression Pattern (Band # CTP25D, No significant match) | Expression Pattern (Band # CTP26A, Canis familiaris chymase U89607) | Expression Pattern (Band # CTP26B, H. sapiens cycA gene for X68303) | Expression Pattern (Band # CTP32D, cDNA FLJ14795 fls, clone AK027701) | Expression Pattern (Band # CTP143B, No significant match) | Expression Pattern (Band # CTP144B, No significant match) | Expression Pattern (Band # CTP149B, No significant match) | Expression Pattern (Band # CTP154A, No significant match) | Expression Pattern (Band # CTP156J, Human DNA sequence fn AL136120)
1 | Cn1c(=O)c2c(ncn2C)n(C)c1=O [Caffeine] | upregulated in Caffeine treated | upregulated in Caffeine treated | upregulated in Caffeine treated | upregulated in Caffeine treated | upregulated in Caffeine | – | – | – | – | – | – | – | – | – | – | – | –
2 | Cn1c(=O)c2c(ncn2C)n(C)c1=O [caffeine] | – | – | – | – | – | upregulated with Etoposide, caffeine | upregulated with Etoposide, caffeine | doublet-larger band is upregulated | repressed with caffeine and aspirin | repressed with caffeine and aspirin | repressed with caffeine and aspirin | repressed with caffeine and aspirin | induced with etoposide and caffeine | repressed with caffeine and aspirin | induced with caffeine | induced with caffeine | induced with etoposide and caffeine
